Measured values from PMC7807754, “A novel protein encoded by circular SMO RNA is essential for Hedgehog signaling activation and glioblastoma tumorigenicity” (Genome Biology, 2021).
These are yes or no findings as the source states them, for the method shown. In cells and extracts the contact can be indirect. Some results given as binding are weak or reduced against the parent protein; the word gives no strength.

Biological target: smoothened (SMO) (human (endogenous in 456 and 3691 CSCs)) (UniProt Q99835)
Test: co-IP; in vivo IP between endogenous SMO and SMO-193a.a. in 456 and 3691 CSCs; co-IP soft RIPA lysis buffer, primary antibody at 4 °C overnight, protein A/G agarose, Western blotting

B1: GFP-SMO-193a.a. (natural protein, human)
chain: MHSYIAAFGAVTGLCTLFTLATFVADWRNSNRYPAVILFYVNACFFVGSIGWLAQFMDGARREIVCRADGTMRLGEPTSNETLSCVIIFVIVYYALMAGVVWFVVLTYAWHTSFKALGTTYQPLSGKTSYFHLLTWSLPFVLTVAILAVAQVDGDSVSGICFVGYKNYRYRAGFVLAPIGLVLIVGGYFLIRE
notes: SMO (smoothened), human, amino acids 230-421; the open reading frame of circ-SMO; extra Glu at the C-terminal, not part of linear SMO; The plasmid for the GFP-tagged protein is not described; source: 293T, transfected, purified (anti-GFP antibody, Catch and Release v2.0 Reversible Immunoprecipitation System)
  binding: binds
